Measurements taken from PubChem BioAssay AID2685 (National Center for Advancing Translational Sciences (NCATS), 2010).
The list shows a part of the results. These are further read-outs of the screen, such as a control signal, another cell line or another target. No call is given for them. Most of these compounds were active or inconclusive in the main read-out, so they are no random draw. Potencies come from curve fits of mixed quality, noted in brackets.

Experiment: qHTS Assay for Lipid Storage Modulators in Drosophila S3 Cells;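 as to cell number change: cells counted by Cell Tracker Red CMTPX staining in the red channel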
Settings: BODIPY lipid droplet fluorescence, 18-24 h; for cell number change: measured here: cell count max response, cells fed with added oleic acid
How it was run: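 Drosophila S3 cells loaded with oleic acid (400 uM, as added) and compounds at several concentrations; lipid droplets imaged by 488-nm laser-scanning cytometry, 500–530 nm intensity and object ratio to cell channel. Percent activity normalized to 20 uM Triacsin C.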

[1] = measured here: lipid fluorescence (Fed channel) AC50, cells fed with added oleic acid
[2] = measured here: cell number channel AC50, cells fed with added oleic acid

Row | SMILES | cell number change [%] | AC50 [1] | AC50 [2]
1 | O=C(NCc1ccncc1)C(=O)NCC1OCCCN1S(=O)(=O)c1ccccc1 (configuration not stated) | 10.2 | – | –
2 | NS(=O)(=O)c1ccc(NCC2COc3ccccc3O2)c([N+](=O)[O-])c1 (configuration not stated) | -15.6 | – | –
3 | CC(NC(=O)C(=S)N1CCN(C)CC1)c1ccccc1 (configuration not stated) | 19.9 | – | –
4 | Cc1cc(S(=O)(=O)N2CCCOC2CNC(=O)C(=O)NCc2cccs2)ccc1F (configuration not stated) | 13.6 | 0.0058 µM [rising, full curve, poor fit] | –
5 | Cc1nc2ccc(NC(=O)Cc3ccsc3)cc2s1 | 11.7 | 0.164 µM [rising, full curve, poor fit] | –
6 | COc1ccc(/C=N/Nc2cc(N3CCOCC3)nc(C)n2)c(OC)c1 | -51.4 | – | 5.17 µM [falling, partial curve, poor fit]
7 | CC(Sc1nc2ccc(C(=O)c3ccccc3)cc2[nH]1)C(=O)O (configuration not stated) | -2.47 | 6.51 µM [falling, single point] | –
8 | Cc1nnc(-c2cnn(C)c2N)n1Cc1cccc(Cl)c1 | 30.3 | – | 2.06 µM [rising, full curve, poor fit]
9 | COC(=O)c1cnn2c1C(=O)N(Cc1cccs1)CC2 | -28.7 | 16.4 µM [falling, single point] | 0.116 µM [falling, full curve]
10 | CCOC(=O)/C=C1\SCC(=O)N1CC(=O)NCCOC | -47.9 | – | 29.1 µM [falling, single point]
11 | CC(C)=C(NC(=O)c1ccccc1)C(=O)NCCc1nc2ccccc2[nH]1 | 10.6 | – | –
12 | Cc1ccc(C)c(N2CCN(C(=O)CSc3ccsc3[N+](=O)[O-])CC2)c1 | 7.16 | 0.00651 µM [rising, full curve, poor fit] | –
13 | Cc1ccc([N+](=O)[O-])c(C)[n+]1C | -75.7 | 0.82 µM [falling, full curve] | –
14 | Cc1csc2c(=O)n(CCO)c(=O)[nH]c12 | -15.8 | 0.0326 µM [falling, full curve, poor fit] | –
15 | CCOc1cc(CNS(=O)(=O)c2cn(C)cn2)cc(OCC)c1OCC | -33.1 | 6.51 µM [falling, single point] | 4.11 µM [falling, partial curve, poor fit]
16 | CCC1(c2ccc(OC)cc2)NC(=O)N(CC(=O)NC2CCCCC2C)C1=O (configuration not stated) | 30.4 | – | 1.3 µM [falling, partial curve]
17 | CCOC(=O)CSc1nc2sccc2c(=O)[nH]1 | -33.4 | 29.1 µM [falling, single point] | 29.1 µM [falling, single point]
18 | CCC(C)N(C(=O)CSc1nc(C)c(C)c(C)c1C#N)C1CCS(=O)(=O)C1 (configuration not stated) | -8.82 | – | –
19 | C/C(Cl)=C/Cn1c(=O)c2c(nc(Br)n2Cc2ccccc2)n(C)c1=O | 45.5 | 29.1 µM [rising, single point] | 3.26 µM [rising, full curve]
20 | O=C(c1ccc(-c2cccc([N+](=O)[O-])c2)o1)N1CCN(c2ccc([N+](=O)[O-])cc2)CC1 | – | 3.66 µM [rising, partial curve] | –

Row | SMILES | cell number change [%] | AC50 [1] | AC50 [2]
21 | CCCCCSc1nc(O)cc(=O)[nH]1 | -16.1 | – | 1.64 µM [falling, partial curve, poor fit]
22 | O=C(C1CCN(S(=O)(=O)c2ccc(Cl)cc2)CC1)N1CCN(c2ccccn2)CC1 | 2.96 | 6.51 µM [rising, single point] | 4.11 µM [rising, single point]
23 | CC1Cc2ccccc2N1S(=O)(=O)c1cccc(C(=O)N2Cc3ccccc3CC2C(N)=O)c1 (configuration not stated) | -11.7 | 29.1 µM [falling, single point] | –
24 | COc1ccc(OC)c(C(=O)c2ccc(C(=O)N3CCCCC3)cc2)c1 | -2.4 | – | –
25 | Cc1sc2nc(Cc3ccccc3)[nH]c(=O)c2c1-c1ccccc1 | 22.2 | 4.61 µM [rising, partial curve] | –
26 | CCC(C(=O)Nc1cc(C)nn1-c1nc(C)cc(C)n1)c1ccccc1 (configuration not stated) | -5.61 | – | –
27 | CCN(C(=O)c1ccc(C(C)(C)C)cc1)c1nnc(Cn2nnc3ccccc32)s1 | -53.4 | 29.1 µM [falling, partial curve, poor fit] | 16.4 µM [falling, partial curve, poor fit]
28 | CCN(CC)c1cnn(C/C(=N\OC)c2ccc(Cl)cc2)c(=O)c1Br | – | – | 1.84 µM [rising, partial curve]
29 | CCN(CCCC(=O)c1ccc(F)cc1)CCc1ccccc1 | -1.65 | 16.4 µM [rising, partial curve] | –
30 | O=C(NNc1nc(-c2ccc(F)cc2)cs1)c1ccccc1 | -15.7 | – | –
31 | Cc1cccc(-c2cc3nc(C)cc(N4CC(C)CC(C)C4)n3n2)c1 (configuration not stated) | -10.2 | 3.26 µM [falling, partial curve] | –
32 | O=C(CCCC1=NS(=O)(=O)c2ccccc2N1)OCc1ccc(Cl)cc1 | – | 4.11 µM [rising, single point] | 7.31 µM [rising, partial curve, poor fit]
33 | CCn1c(=S)sc2c(=O)n(CC(=O)Nc3cccc(OC)c3)c(C)nc21 | -2.75 | 0.82 µM [falling, single point] | –
34 | CCOc1ccc(-c2nnc(-c3ccco3)o2)cc1 | 88.9 | – | 18.4 µM [rising, partial curve, poor fit]
35 | NC(=O)c1ccsc1NC(=O)CN1C(=O)NC2(CCCCC2)C1=O | 37.5 | 29.1 µM [rising, single point] | 29.1 µM [rising, single point]
36 | Cc1nc(NC(=O)c2ccc(Br)s2)sc1C(=O)N(C)C | 67.3 | 16.4 µM [rising, partial curve] | 20.6 µM [rising, partial curve, poor fit]
37 | Nc1ccc(-c2cn3cccnc3n2)cc1 | -16.3 | 0.708 µM [falling, full curve, poor fit] | 0.631 µM [falling, single point]
38 | COc1ccc(-c2cc(C)no2)cc1S(=O)(=O)N(C)Cc1ccco1 | – | 0.058 µM [rising, full curve, poor fit] | –
39 | COc1ccc(NC(=O)Nc2nccs2)cc1 | -14.8 | 2.06 µM [rising, partial curve] | –
40 | Cc1ccc(NNC(=O)c2snnc2C)cc1Cl | – | 2.31 µM [rising, single point] | –

Row | SMILES | cell number change [%] | AC50 [1] | AC50 [2]
41 | CNC(=O)c1nc(C)n(-c2cc(Cl)ccc2Cl)n1 | 2.97 | – | –
42 | CCOc1cc(CNc2ccc(N3CCCC3)cc2)cc(Cl)c1OC | 17.4 | 3.66 µM [rising, single point] | –
43 | O=C(O)c1ccc(-c2ccccc2Cl)o1 | -30.8 | 0.651 µM [falling, single point] | 0.651 µM [falling, full curve, poor fit]
44 | CS(=O)(=O)N(CC(=O)N/N=C/c1cccs1)c1cccc(Cl)c1Cl | -20.2 | – | 0.00461 µM [falling, full curve, poor fit]
45 | COc1ccc(C(=O)/C(=C\c2sccc2C)c2nc3ccccc3o2)cc1 | 28.4 | 14.6 µM [rising, partial curve] | –
46 | O=C(COc1ccc(Cl)cc1Cl)N1CCN(c2ccccn2)CC1 | 32.5 | – | –
47 | COc1ccc(Cl)cc1CN1C(=O)NC2(CCCCCC2)C1=O | 6.76 | 0.58 µM [falling, single point] | –
48 | CSc1ccccc1C(=O)NCc1ccccc1C | -38.2 | 20.6 µM [falling, partial curve, poor fit] | 23.1 µM [falling, partial curve]
49 | COC(=O)Cn1c(N2CCCC2)nc2c1c(=O)n(C)c(=O)n2C | 4.05 | 4.11 µM [rising, single point] | –
50 | O=C1/C(=C\c2ccco2)SC(=S)N1c1ccccc1 | -4.61 | 0.00517 µM [falling, full curve, poor fit] | –
51 | Cc1ccc(S(=O)(=O)N(C)C)cc1-n1c(SCC(=O)Nc2ccc(F)c(F)c2F)nc2ccccc2c1=O | 41.5 | 0.326 µM [falling, partial curve, poor fit] | 29.1 µM [rising, single point]
52 | CC1CCc2c(sc(NC(=O)C(=O)NCc3ccco3)c2C#N)C1 (configuration not stated) | – | 3.66 µM [rising, single point] | 2.59 µM [rising, partial curve]
53 | N#Cc1ccccc1COC(=O)CCC(=O)c1cccs1 | 13 | 0.00461 µM [rising, full curve, poor fit] | –
54 | CC(C)(C)NC(=O)C1CC(=O)OC12CCOC(C)(C)C2 (configuration not stated) | -5.24 | – | 3.26 µM [falling, partial curve]
55 | COc1ccc(Br)cc1/C=C/C(=O)NC(=S)Nc1ccc(CN2CCOCC2)cc1 | 24.2 | 6.51 µM [rising, partial curve] | –
56 | CCCCCCn1c(SCCC)nc2c1c(=O)[nH]c(=O)n2C | -30.3 | – | 5.17 µM [falling, full curve, poor fit]
57 | N#Cc1sc(C(N)=O)c(-c2ccccc2)c1-c1ccccc1 | 27.9 | – | –
58 | CS(=O)(=O)c1ccc(C(=O)OCC(=O)NC23CC4CC(CC(C4)C2)C3)cc1[N+](=O)[O-] | -11.6 | 29.1 µM [falling, single point] | –
59 | CCOC(=O)/C(C#N)=C/c1cccn1-c1ccc(Cl)cc1 | 3.31 | 0.0461 µM [rising, full curve, poor fit] | –
60 | CCOc1ccc(CN(C)C(=O)c2ccc(=O)[nH]c2)cc1 | 3.63 | 7.31 µM [falling, partial curve, poor fit] | –

Single records (already shown):
COc1ccc(Br)cc1/C=C/C(=O)NC(=S)Nc1ccc(CN2CCOCC2)cc1 as listed: cell number change [%]: 24.2; AC50 [1]: 6.51 µM [rising, partial curve]
CSc1ccccc1C(=O)NCc1ccccc1C as listed: cell number change [%]: -38.2; AC50 [1]: 20.6 µM [falling, partial curve, poor fit]; AC50 [2]: 23.1 µM [falling, partial curve]
CCOC(=O)/C(C#N)=C/c1cccn1-c1ccc(Cl)cc1 as listed: cell number change [%]: 3.31; AC50 [1]: 0.0461 µM [rising, full curve, poor fit]
